In article PMC3793970:
These are yes or no findings as the source states them, for the method shown.

Chains of the proteins cited; added tags and fusions are not shown. Lines headed by an entry give the natural chain unless they say otherwise; changes in a name come on top. Residues count along the entry.
UniProt P25054, residues 1202-1551: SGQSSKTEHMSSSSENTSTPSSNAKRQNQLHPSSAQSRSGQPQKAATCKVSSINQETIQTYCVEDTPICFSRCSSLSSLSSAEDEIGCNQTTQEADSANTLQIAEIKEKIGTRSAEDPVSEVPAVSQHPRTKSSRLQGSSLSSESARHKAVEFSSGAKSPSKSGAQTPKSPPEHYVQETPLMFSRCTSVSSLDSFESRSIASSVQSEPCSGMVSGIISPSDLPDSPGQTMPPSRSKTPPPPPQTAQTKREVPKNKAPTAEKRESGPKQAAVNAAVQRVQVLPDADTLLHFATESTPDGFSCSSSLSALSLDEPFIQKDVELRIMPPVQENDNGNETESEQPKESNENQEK

Molecular target: ySUMO-APC-MCR fusion protein (Adenomatous Polyposis Coli Mutation Cluster Region, APC-S1202-K1551) (human) (UniProt P25054)
Test: SEC-MALS; 10 µl of 50 µM ySUMO-APC-MCR injected on Superdex 200 5/150 GL, 0.2 ml/min, 20 mM Tris pH 8, 200 mM KCl, 0.8 mM TCEP; miniDAWN TREOS detector; both purified

- binding: no binding (tested: 50 µM)
Substance: ySUMO-APC-MCR fusion protein (Adenomatous Polyposis Coli Mutation Cluster Region, APC-S1202-K1551) (from UniProt P25054 1202-1551) (domain or fragment)
